Experiment [1] deals with T1, SCI1-nGFP (BiFC fusion) (Nicotiana tabacum).
T1 sequence: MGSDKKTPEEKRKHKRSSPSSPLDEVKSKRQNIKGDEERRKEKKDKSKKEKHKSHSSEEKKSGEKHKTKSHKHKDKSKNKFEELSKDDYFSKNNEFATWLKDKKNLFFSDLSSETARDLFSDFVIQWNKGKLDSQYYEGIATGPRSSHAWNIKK
Put plainly: split reporter; BiFC with split GFP (nGFP 1-149, cGFP 150-238), 35S promoter, transient expression in N. benthamiana leaves, confocal microscopy with DAPI; SCI1 with 14-3-3D seen only in cells at G2/prophase.

The target in experiment [2] is T2, GST-SCI1 (Nicotiana tabacum).
T2 sequence: T1 sequence
Put plainly: pull-down; E. coli soluble extracts mixed and incubated overnight at 4°C with Glutathione Sepharose 4 FastFlow; washed three times with PBS + 1 mM PMSF; immunoblot anti-GST or anti-HIS. (In general: A western blot detects proteins with antibodies after separation by electrophoresis.)

Experiment [3] concerns the target T3, SCI1-GFP (Nicotiana tabacum).
T3 sequence: T1 sequence
Put plainly: co-IP; stigma/style extract of 35Sprom::SCI1-GFP plants mixed with E. coli extract of HIS-14-3-3D2; monoclonal anti-GFP, 4°C 2 h, Protein G Sepharose; six washes; immunoblot anti-HIS or anti-HIS-SCI1.

Results are given in words; binding and its absence hold for the method and conditions named. Binding seen in cells or lysates may run through a third protein. A result given as binding can be weak or reduced; the word gives no strength. Tags and fused reporters may be left off the sequences shown.

As for “14-3-3D-nGFP / 14-3-3D-cGFP (BiFC fusions) (Nicotiana tabacum)”, in experiment [1], the binding result was “binds”.
As for HIS-14-3-3D2 (Nicotiana tabacum), the binding result in experiment [2] and in experiment [3] was “binds” each time.

The values above are taken from article PMC9013909.
